## Primary screen of a compound library

Amino acid sequences for entries named in this document (tags omitted).
UniProt P9WFT3, whole entry: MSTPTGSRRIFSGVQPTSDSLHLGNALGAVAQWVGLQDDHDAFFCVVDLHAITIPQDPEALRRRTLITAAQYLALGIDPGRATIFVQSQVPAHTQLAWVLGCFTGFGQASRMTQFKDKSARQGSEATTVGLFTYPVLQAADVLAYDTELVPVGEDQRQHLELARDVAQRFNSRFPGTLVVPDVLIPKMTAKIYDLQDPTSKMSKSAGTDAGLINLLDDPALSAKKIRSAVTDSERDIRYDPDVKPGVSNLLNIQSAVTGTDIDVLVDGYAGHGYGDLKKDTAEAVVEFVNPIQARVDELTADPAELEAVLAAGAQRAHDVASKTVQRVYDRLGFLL

Leishmania in macrophages: 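Cell assay of Leishmania donovani living inside macrophages; the read-out is not stated. Tested at 30 µM. Higher reads as stronger inhibition (inferred: compounds with an IC50 in retests scored well above the rest). Size under these conditions: about 69,000 compounds, about 1,000 of them at 50% or above in at least one test.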
MtTrpRS: 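Tryptophan-tRNA ligase, Mycobacterium tuberculosis (UniProt P9WFT3). Enzyme assay of tryptophanyl-tRNA synthetase; the read-out is not stated. Tested at 10 µM. Direction is not recorded; retested compounds ran higher, which suggests that high means inhibition. Size under these conditions: about 65,000 compounds, about 64 of them at 50% or above in at least one test.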
T. brucei: 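Whole-parasite assay of Trypanosoma brucei over 72 hours; the read-out is not stated. Compounds at 30 µM. Direction is inferred from retests: higher values go with stronger inhibition. Values scatter widely below zero; nearly all retest evidence comes from the higher of the two concentrations used. Of about 64,000 compounds tested this way, about 940 (1.5%) reached 50% or more in at least one test.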

Results are given as percent effect.
The controls that fix the scale are not given in the record; negative values are as filed.
This is an unselected part of the compounds tested.
Two or more numbers in one place are separate tests of the same structure; such repeats can differ widely.
A dash means the value is not listed here; it may have been measured.

structure,Leishmania in macrophages,MtTrpRS,T. brucei
CNc1cc(N2CCCC2CNCc2cccnc2C)ncn1 (stereo unspecified),14.25,0.581,-20.02
Cc1cccc(CN2CCc3nnc(Cn4cccc4)n3CC2)n1,-,-2.18,-
O=C(O)C1(n2ccc(-c3ccco3)n2)CCN(Cc2ccccn2)CC1,-10.77,6.302,-10.29
COCCNC(=O)Nc1ccc(F)c(C(N)=O)c1,4.487,-5.943,-2.947
COCCC(=O)NCc1ccc(-c2ccccc2C(=O)O)nc1,5.056,-4.4,2.978
CN(CC1CC1)c1ccc2ccc(C(=O)NCCN3CCOCC3)cn12,17.78,-0.8397,-12.4
COCc1cc(N2CCN(Cc3ccncc3)CC2)n2nccc2n1,1.875,2.562,3.792
CC(C)c1cc(C(=O)N2C[C@H]3CC[C@@H]2CN(Cc2cscn2)C3)no1,-,0.9183,-
Cc1cc(C)n(-c2ccc(CNCc3ccc(OC(C)C)cc3)cn2)n1,27.19,-0.4717,-15.45
CC(NC(=O)NCCn1ccnc1)c1ccc2c(c1)CCC(=O)N2 (stereo unspecified),-0.1933,11.81,-
O=C(O)C(F)(F)F.[H][C@@]12CCN(c3ccncn3)C[C@@]1([H])O[C@@H](C(=O)NCCOC)C2,8.586,-,-1.541
Cc1ccc(CNCc2nccn2C)c(OCC2CC2)c1,-2.223,-0.784,-3.237
CS(=O)(=O)N1CCO[C@@H]2CN(C(=O)COC3CCCC3)C[C@@H]2C1,-,22.5,-
Cc1ccoc1C(=O)N1C[C@@H]2COC[C@]2(COCc2cccnc2)C1,-,0.07969,-
O=C(CCc1nc2cc(Br)cnc2[nH]1)NCCCN1CCOCC1,23.69 and -12.76,0.3408,-16.06
CCN(Cc1csc(C)n1)c1cccc(CO)c1,28.19,-0.7958,3.901
CS(=O)(=O)N1CCC(c2nccn2Cc2ccccn2)CC1,-21.77,-1.257,-11.16
CN(C)CCn1ccc2cc(NC(=O)NCc3ccon3)ccc21,-5.074,1.486,-9.913
CCn1cc(CN2CCC(C3CCN(C)CC3)CC2)cc1C#N,8.451,1.142,15.16
CC(NCC(F)(F)F)c1ccc(S(C)(=O)=O)c(F)c1 (stereo unspecified),-9.992,-0.5698,-4.339
O=C(c1ccoc1)N1C[C@@H]2OCCN(c3ncccn3)[C@@H]2C1,-,-2.216,-
CCc1nn(C)c(Cl)c1CN1CCC(c2cc(O)nc(C)n2)CC1,9.489,-3.922,11.41
Cc1nnc(NC(=O)NCc2ccc(N3CCN(C)CC3)nc2)s1,29.54,-1.072,36.01
Cc1cn[nH]c1C1CCCCN1C(=O)CCc1ccc(F)cc1 (stereo unspecified),9.485 and 14.61,-,3.081
CCC1COCCN1C(=O)NCc1nccn1CC(C)C (stereo unspecified),11.78,1.125,-41.75
Nc1c(C(=O)C2CCCN(C(=O)C3CC3)C2)cnn1-c1ccc(F)cc1 (stereo unspecified),34.65,-18.24,6.542
COCCCn1ccc(NC2CCSCC2)n1,-8.34,-0.8895,-37.03
Cc1nc(CN2CCC3(C2)CN(C(=O)c2conc2C)C3)cs1,10.33,-,-77.73
Cn1nc(Cl)cc1C(=O)N1CCC(C(=O)c2nc3ccccc3s2)CC1,-20.59,-5.013,33.19
Cc1ncsc1CN1CC[C@H](O)[C@@H](n2cnc3c(N)ncnc32)CC1,10.61 and 8.607,-,-32.43
[H][C@@]12COC[C@]1(CNS(C)(=O)=O)CN(C(=O)Cc1ccccc1F)C2,-2.84,-,9.67
Cc1ccc(N2CCC(Nc3ccc4nnc(C)n4n3)CC2)nc1,10.12,-1.083,-23.34
CCS(=O)(=O)CCCOc1nc(-c2ccccc2Cl)no1,22.31,9.897,-13.81
Cc1ccc(C(C)NC(=O)CCc2cnn(C)c2)cc1F (stereo unspecified),33.57,1.077,-31.33
COCCc1noc(CN(C)c2nc(C)nc(C)c2C)n1,11.81,19.89,-2.665
CN(C)c1cc(C(=O)N2CCN(c3nccs3)CC2)ccn1,16.58,-6.417,6.14
CC(C)(C)c1noc(CNc2ccccc2N2CCC(O)CC2)n1,9.405,-4.727,-7.487
COc1cccc(-c2nc(C)c(C(=O)N[C@H](CO)CC(C)C)s2)c1,8.738,-11.69,-13.09
Cc1cccc(CN2C[C@@H]3CN(C(=O)c4ccco4)C[C@@H]3C2=O)c1,-,-7.974,-
CC(C)NC(=O)c1nnn(-c2cccc(F)c2)c1C1CC1,16.7,-0.3819,-25.83
CC(Oc1ccccc1C(F)(F)F)C(=O)NCCNC(=O)C1CC1 (stereo unspecified),27.08,2.584,-19.15
CCc1ncc(-c2cn(CCSc3ncn[nH]3)nn2)cn1,34.42,-6.74,8.313
CC(C)CN1CCC2(CC1)C(=O)Nc1ccc(C(=O)N(C)C)cc12,-,2.347,-
CN1CCCN(C(=O)c2cnsn2)c2cc(F)ccc21,-19.42,0.6958,-9.517
CCS(=O)(=O)N1Cc2c(Cn3cccc3)nn(C(C)C)c2C1,-30.52,-1.622,-
CC1(C)CNC(=O)c2nc(CCN3CCC(O)CC3)[nH]c2C1,-12,-1.806,-45.33

Repeated from the top, 5 entries:

Result for CNc1cc(N2CCCC2CNCc2cccnc2C)ncn1 (stereo unspecified) was Leishmania in macrophages: 14.25%; MtTrpRS: 0.581%; T. brucei: -20.02%.
Result for Cc1cccc(CN2CCc3nnc(Cn4cccc4)n3CC2)n1 was MtTrpRS: -2.18%.
Result for O=C(O)C1(n2ccc(-c3ccco3)n2)CCN(Cc2ccccn2)CC1 was Leishmania in macrophages: -10.77%; MtTrpRS: 6.302%; T. brucei: -10.29%.
Result for COCCNC(=O)Nc1ccc(F)c(C(N)=O)c1 was Leishmania in macrophages: 4.487%; MtTrpRS: -5.943%; T. brucei: -2.947%.
Result for COCCC(=O)NCc1ccc(-c2ccccc2C(=O)O)nc1 was Leishmania in macrophages: 5.056%; MtTrpRS: -4.4%; T. brucei: 2.978%.

The values are deposited in ChEMBL (CHEMBL3988442, “University of Dundee, Small-Polar-MMV Screening Library” (2021)).